Laboratory results published in the supplement of paper PMC7877785.
± gives the uncertainty stated by the source. Many of these values have a large error.

Assay: self-splicing fitness, log relative to wild type (ln ratio); higher = more splicing; Tetrahymena group I intron in knt gene, E. coli kanamycin selection, DiMSum; sequences stand for … in CUCUCU…GGAGGGAAAAGUUAUCAGGCAUGCACCUGGUAGCUAGUCUUUAAACCAAUAGAUUGCAUCGGUUUAAAAGGCAAGACCGUCAAAUUGCGGGAAAGGGGUCAACAGCCGUUCAGUACCAAGUCUCAGGGGAAACUUUGAGAUGGCCUUGCAAAGGGUAUGGUAAUAAGCUGACGGACAUGGUCCUAACCACGCAGCCAAGUCCUAAGUCAACAGAUCUUCUGUUGAUAUGGAUGCAGUUCACAGACUAAAUGUCGGUCGGGGAAGAUGUAUUCUUCUCAUAAGAUAUAGUCGGACCUCUCCUUAAUGGGAGCUAGCGGAUGAAGUGAUGCAACACUGGAGCCGCUGGGAACUAAUUUGUAUGCGAAAGUAUAUUGAUUAGUUUUGGAGUACUCGUGGUCG
Summary of the method: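 DiMSum derived fitness as the error-weighted combination of fold changes across replicates, kanamycin versus no kanamycin, normalised to wild type. E. coli BL21(DE3) held the library, which randomised all eight P1ex-region intron nucleotides within the knt kanamycin-resistance gene on pET-22b(+). Six replicate transformations grew overnight at 37°C or 30°C on LB agar with or without 25 μg/mL kanamycin, also containing 100 μg/mL carbenicillin, 50 μM IPTG and 0.2% rhamnose, and pooled colonies were amplicon-sequenced on an Illumina HiSeq 2500.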

Row | Sequence | self-splicing fitness (ln) (30 °C) | self-splicing fitness (ln) (37 °C)
1 | CAUGAGCAAUAUUACGGACU | -4.39 ± 0.73 | 
2 | AGAGAGCAAUAUUACGUAUC | -2.79 ± 1.2 | 
3 | AUGUAGCAAUAUUACGUCAC | -1.55 ± 0.67 | 
4 | CCUGAGCAAUAUUACGCGGG | -3.41 ± 0.26 | -2.22 ± 0.34
5 | CGUAAGCAAUAUUACGGAUA | -3.81 ± 0.73 | 
6 | UCGCAGCAAUAUUACGAGCG | -1.97 ± 0.12 | -0.806 ± 0.13
7 | AGUUAGCAAUAUUACGCUGG |  | -2.71 ± 0.76
8 | UGGCAGCAAUAUUACGCUGC |  | -2.96 ± 0.77
9 | AUGGAGCAAUAUUACGAUCU | -1.43 ± 0.59 | 
10 | CGGGAGCAAUAUUACGGGAU |  | -2.2 ± 0.56
11 | GCCGAGCAAUAUUACGCCCA |  | -1.47 ± 1.2
12 | CUGGAGCAAUAUUACGGUCA |  | -3.17 ± 0.52
13 | CCUGAGCAAUAUUACGAGUU |  | -3.8 ± 0.51
14 | GUACAGCAAUAUUACGAGUA | -3.53 ± 0.73 | 
15 | GCUUAGCAAUAUUACGGUAG |  | -3.53 ± 0.52
16 | CUUUAGCAAUAUUACGUCCU | -3.32 ± 0.61 | 
17 | AUAGAGCAAUAUUACGGGCC | -2.71 ± 0.62 | -1.98 ± 1.1
18 | CUAGAGCAAUAUUACGUUCC | -4.16 ± 1 | 
19 | UGAAAGCAAUAUUACGCAGC | -3.91 ± 0.51 | 
20 | UUUAAGCAAUAUUACGGCCC |  | -1.94 ± 0.81
21 | GCAUAGCAAUAUUACGAAAA | -0.675 ± 0.63 | 
22 | UCGGAGCAAUAUUACGGUCA |  | -2.56 ± 0.76
23 | UUGUAGCAAUAUUACGAGCG | -1.01 ± 0.14 | -0.454 ± 0.28
24 | ACGGAGCAAUAUUACGUUAC | -4.94 ± 0.51 | 
25 | CUCUAGCAAUAUUACGGCAA |  | -4.41 ± 0.51

Row | Sequence | self-splicing fitness (ln) (30 °C) | self-splicing fitness (ln) (37 °C)
26 | GCAGAGCAAUAUUACGCCAG |  | -2.15 ± 0.78
27 | AGUAAGCAAUAUUACGAAUA |  | -1.82 ± 0.58
28 | UCUAAGCAAUAUUACGACUA | -3.07 ± 0.25 | -0.59 ± 0.15
29 | AGGGAGCAAUAUUACGGAUA |  | -1.98 ± 0.58
30 | UAAGAGCAAUAUUACGCUAA | -3.89 ± 0.6 | 
31 | UAGGAGCAAUAUUACGUUCC |  | -2.58 ± 0.62
32 | CGAGAGCAAUAUUACGAGAU | -3.59 ± 0.6 | -2.2 ± 1.1
33 | GCCGAGCAAUAUUACGCCAG | -2.83 ± 0.51 | 
34 | AAGUAGCAAUAUUACGCGGC | -3.47 ± 0.53 | 
35 | AGGGAGCAAUAUUACGCAGC |  | -1.64 ± 0.73
36 | UGGAAGCAAUAUUACGUGUC | -5.63 ± 0.51 | 
37 | UUCGAGCAAUAUUACGAAUC | -5.31 ± 1 | 
38 | GUGUAGCAAUAUUACGAGAG | -4.62 ± 1 | 
39 | AGUAAGCAAUAUUACGGAGC |  | -2.01 ± 0.52
40 | UAUUAGCAAUAUUACGUUUU | -2.42 ± 0.58 | 
41 | GAGUAGCAAUAUUACGUAAA | -2.93 ± 0.71 | 
42 | GUGGAGCAAUAUUACGAGAC | -0.619 ± 0.52 | -0.146 ± 0.5
43 | UCGGAGCAAUAUUACGCUCG |  | -1.05 ± 0.67
44 | AUGUAGCAAUAUUACGACCG | -0.834 ± 0.12 | -0.5 ± 0.17
45 | AGUGAGCAAUAUUACGCGGG | -2.9 ± 0.55 | 
46 | CUGCAGCAAUAUUACGCUGC |  | -3.05 ± 0.61
47 | UUCUAGCAAUAUUACGGAGC |  | -4.71 ± 0.72
48 | AGGGAGCAAUAUUACGAAUU | -3.85 ± 0.63 | 
49 | CUUGAGCAAUAUUACGUUCC |  | -1.98 ± 0.79
50 | GCGGAGCAAUAUUACGCAAC |  | -2.08 ± 0.79

Row | Sequence | self-splicing fitness (ln) (30 °C) | self-splicing fitness (ln) (37 °C)
51 | GAAUAGCAAUAUUACGAAGC | -3.17 ± 0.24 | -2.54 ± 0.22
52 | ACAGAGCAAUAUUACGACCG | -3.66 ± 0.74 | -2.14 ± 0.84
53 | AAAGAGCAAUAUUACGAUCC | -4.58 ± 0.51 | 
54 | CGGCAGCAAUAUUACGCGGA | -3.57 ± 1 | 
55 | UUCAAGCAAUAUUACGAGCA | -1.01 ± 0.1 | -0.0614 ± 0.12
56 | GUUAAGCAAUAUUACGGUCA | -0.91 ± 0.098 | -0.943 ± 0.092
57 | GGGGAGCAAUAUUACGGUCC |  | -1.84 ± 0.57
58 | ACGGAGCAAUAUUACGAAAG |  | -1.05 ± 0.54
59 | CUUGAGCAAUAUUACGAACA | -0.631 ± 0.61 | -2.98 ± 0.75
60 | UAAGAGCAAUAUUACGCCCG | -1.65 ± 0.57 | -0.605 ± 0.82
61 | CACUAGCAAUAUUACGAAAU | -4.02 ± 0.52 | -1.38 ± 0.4
62 | GAUGAGCAAUAUUACGCGUC |  | -1.37 ± 1.2
63 | GUGGAGCAAUAUUACGCUUA | -1.86 ± 0.14 | -1.04 ± 0.22
64 | GUGUAGCAAUAUUACGGUCA | -1.36 ± 0.14 | -2.06 ± 0.12
65 | GCGAAGCAAUAUUACGCCCA | -2.63 ± 0.5 | -0.595 ± 1
66 | CUUAAGCAAUAUUACGCCGC | -4.93 ± 1 | -1.09 ± 0.52
67 | CUAUAGCAAUAUUACGAUUU | -4.71 ± 1 | 
68 | GCCGAGCAAUAUUACGAUCG |  | -0.973 ± 0.57
69 | GCCCAGCAAUAUUACGCCGU | -0.724 ± 0.092 | -0.492 ± 0.094
70 | GGAAAGCAAUAUUACGUCCC | -3.68 ± 0.6 | 
71 | GCAUAGCAAUAUUACGUACC | -0.706 ± 0.19 | -0.405 ± 0.26
72 | CGGAAGCAAUAUUACGCCGA | -1.97 ± 0.82 | -1.52 ± 0.56
73 | CUCAAGCAAUAUUACGAUCC |  | -3.53 ± 0.73
74 | UGUAAGCAAUAUUACGGUAC |  | -2.2 ± 1.1
75 | UUAUAGCAAUAUUACGUUCC | -1.55 ± 1.2 | 

Row | Sequence | self-splicing fitness (ln) (30 °C) | self-splicing fitness (ln) (37 °C)
76 | UCGUAGCAAUAUUACGGGCU | -3.31 ± 1 | 
77 | GAAUAGCAAUAUUACGUGUA | -1.82 ± 0.12 | -1.49 ± 0.13
78 | GCAGAGCAAUAUUACGCUAA | -2.73 ± 0.55 | 
79 | AUAGAGCAAUAUUACGUGAA | -3.27 ± 1.1 | 
80 | UCGCAGCAAUAUUACGUAAA | -1.69 ± 0.094 | -1.12 ± 0.12
81 | GCGGAGCAAUAUUACGGUGA |  | -2.15 ± 0.79
82 | CCCUAGCAAUAUUACGCUGU | -4.59 ± 0.31 | -2.63 ± 0.21
83 | UACUAGCAAUAUUACGACGG | -0.517 ± 0.12 | -0.301 ± 0.15
84 | CUAAAGCAAUAUUACGCUAA |  | -3.82 ± 1
85 | CAUAAGCAAUAUUACGGAUG | -3.14 ± 0.14 | -2.17 ± 0.15
86 | CUGUAGCAAUAUUACGGAAC | -4.79 ± 0.51 | 
87 | CAGGAGCAAUAUUACGCCUC |  | -2.54 ± 1.1
88 | UGUAAGCAAUAUUACGCCGC | -2.61 ± 0.83 | -1.09 ± 0.92
89 | CCGUAGCAAUAUUACGGACA |  | -1.82 ± 0.52
90 | AGAGAGCAAUAUUACGAAGA |  | -0.681 ± 1.4
91 | GACAAGCAAUAUUACGCCCC | -3.03 ± 1.1 | 0.0981 ± 1.2
92 | GGUUAGCAAUAUUACGCACC | -3.51 ± 0.53 | -2.99 ± 1
93 | UAAGAGCAAUAUUACGCGUU | -3.96 ± 1 | 
94 | UUCUAGCAAUAUUACGACGC |  | -1.08 ± 0.52
95 | CCAGAGCAAUAUUACGGCCA | -1.45 ± 0.56 | 0.0981 ± 1.2
96 | UAUCAGCAAUAUUACGUGUA | -0.198 ± 0.069 | 0.204 ± 0.079
97 | CAAUAGCAAUAUUACGAGGC | -3.6 ± 0.33 | -1.44 ± 0.31
98 | CUCUAGCAAUAUUACGAGCU | -2.71 ± 1.1 | 0.182 ± 0.53
99 | GCAGAGCAAUAUUACGUCGC | -4.17 ± 1.1 | -3.4 ± 1
100 | CGAGAGCAAUAUUACGAUCG |  | -1.66 ± 0.53

Row | Sequence | self-splicing fitness (ln) (30 °C) | self-splicing fitness (ln) (37 °C)
101 | GUUUAGCAAUAUUACGCUUC | -2 ± 0.87 | 
102 | UUAUAGCAAUAUUACGAGCG | -0.835 ± 0.28 | -0.754 ± 0.29
103 | GUGGAGCAAUAUUACGUAUA |  | -3.24 ± 0.6
104 | UCGGAGCAAUAUUACGCAAU |  | -1.61 ± 0.61
105 | UUGGAGCAAUAUUACGGCGC | -3.12 ± 1.1 | -1.5 ± 0.69
106 | CAUGAGCAAUAUUACGAGCC |  | -1.8 ± 0.68
107 | GCAAAGCAAUAUUACGCGUA | -0.985 ± 0.075 | -0.362 ± 0.071
108 | UCAAAGCAAUAUUACGAAAA | -3.05 ± 0.64 | 
109 | GGUCAGCAAUAUUACGCAGA | -2.7 ± 0.76 | 
110 | CUUCAGCAAUAUUACGUCCU | -4.12 ± 1 | -2.16 ± 0.56
111 | CCCGAGCAAUAUUACGCUCU | -4.32 ± 1 | 
112 | CUAGAGCAAUAUUACGUAGC | -3.23 ± 0.53 | 
113 | GGGCAGCAAUAUUACGUGCC | -1.82 ± 0.7 | 
114 | UUGCAGCAAUAUUACGGAAC |  | -1.54 ± 0.6
115 | AUCGAGCAAUAUUACGCCUA | -2.72 ± 0.51 | 
116 | CUCGAGCAAUAUUACGCCCC |  | -0.595 ± 0.82
117 | UAAUAGCAAUAUUACGAAGC | -3.42 ± 1 | 
118 | CACGAGCAAUAUUACGACAA | -4.27 ± 0.52 | 
119 | GUUGAGCAAUAUUACGACCC | -0.589 ± 0.78 | 
120 | CCACAGCAAUAUUACGUCUU | -3.88 ± 0.14 | -2.85 ± 0.12
121 | UACUAGCAAUAUUACGCCAC | -4.89 ± 0.59 | -2.43 ± 0.64
122 | UGUGAGCAAUAUUACGAAAG | -2.98 ± 0.18 | -2.69 ± 0.27
123 | GUAAAGCAAUAUUACGAGGG |  | -0.769 ± 0.52
